Laboratory results: PubChem BioAssay AID1159599 (NIAID, 2016)

Assay: 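Effect of knocking down TLR signalling components on Tnf reporter after LPS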
Cells: mouse RAW264.7 G9 macrophage reporter clone cells
Knock-down reagent: single siRNA against mouse genes
Timing: 48 to 72 h after siRNA transfection, LPS for the last 16 h
Conditions: LPS (Salmonella minnesota R595), 16 h before fixation; dose not stated
Read-out: 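High-content imaging of red fluorescence driven by the Tnf promoter after LPS, background subtracted, scored per siRNA as a plate-wise median/MAD robust z-score, replicate mean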
Scale: Tnf reporter z-score: higher = stronger Tnf promoter reporter signal after LPS
Call rule: 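Active when the replicate-mean Tnf reporter z-score is about -1.5 or lower, or about 1.5 or higher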
Calls: active = strong change either way; inactive = little change
This is an unselected part of 756 reagents tested. 130 of all reagents (17%) count as active. 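Calls are two-sided: actives include siRNAs that raised the Tnf reporter as well as ones that lowered it.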 Unmarked entries are inactive. Reagents against one gene are numbered here. Not stated in the record: the amount of reagent.

Ifnar1 #1
- Tnf reporter z-score, replicate mean: -1.03

Ifnar1 #2
- Tnf reporter z-score, replicate mean: -1.26

Ifnar1 #3
- Tnf reporter z-score, replicate mean: -0.703

Ifnar1 #4
- Tnf reporter z-score, replicate mean: 1.68 (active)

Ifnar1 #5
- Tnf reporter z-score, replicate mean: -1.08

Ifnar1 #6
- Tnf reporter z-score, replicate mean: -1.05

Pik3r1 #1
- Tnf reporter z-score, replicate mean: -0.521

Pik3r1 #2
- Tnf reporter z-score, replicate mean: -0.473

Pik3r1 #3
- Tnf reporter z-score, replicate mean: -0.13

Pik3r1 #4
- Tnf reporter z-score, replicate mean: -0.00905

Pik3r1 #5
- Tnf reporter z-score, replicate mean: -0.449

Pik3r1 #6
- Tnf reporter z-score, replicate mean: -0.39

Next part, starting with the last 2 of the part before.
Pik3r1 #5
- Tnf reporter z-score, replicate mean: -0.449

Pik3r1 #6
- Tnf reporter z-score, replicate mean: -0.39

Mapk12 #1
- Tnf reporter z-score, replicate mean: 0.313

Mapk12 #2
- Tnf reporter z-score, replicate mean: -0.314

Mapk12 #3
- Tnf reporter z-score, replicate mean: -1.11

Mapk12 #4
- Tnf reporter z-score, replicate mean: 2.15 (active)

Mapk12 #5
- Tnf reporter z-score, replicate mean: -0.398

Mapk12 #6
- Tnf reporter z-score, replicate mean: -1.37

Btk #1
- Tnf reporter z-score, replicate mean: -0.181

Btk #2
- Tnf reporter z-score, replicate mean: -1.44

Btk #3
- Tnf reporter z-score, replicate mean: -1.03

Btk #4
- Tnf reporter z-score, replicate mean: -0.15

Btk #5
- Tnf reporter z-score, replicate mean: -1.12

Btk #6
- Tnf reporter z-score, replicate mean: -0.0537
